According to the supplement of paper PMC12823440, “Inhibitors supercharge kinase turnover through native proteolytic circuits” (Nature, 2025):
Counter-ions that a name gives are not always drawn. The list shows a part of the results. The calls rarely recur for the same compound in another form.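 In K562 cells expressing nanoluciferase-fused kinases, luminescence was recorded at 4 h intervals between 2 and 18 h, normalized as percent of control with DMSO at 100% and a positive control at 0%. A significant (2 sigma) signal drop marks a time point as decreased. The authors' rule for a hit is not shown and takes in more than the number of time points.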

Chains of the proteins cited; added tags and fusions are not shown. Lines headed by an entry give the natural chain unless they say otherwise; changes in a name come on top.
UniProt P07947, whole entry, looked up: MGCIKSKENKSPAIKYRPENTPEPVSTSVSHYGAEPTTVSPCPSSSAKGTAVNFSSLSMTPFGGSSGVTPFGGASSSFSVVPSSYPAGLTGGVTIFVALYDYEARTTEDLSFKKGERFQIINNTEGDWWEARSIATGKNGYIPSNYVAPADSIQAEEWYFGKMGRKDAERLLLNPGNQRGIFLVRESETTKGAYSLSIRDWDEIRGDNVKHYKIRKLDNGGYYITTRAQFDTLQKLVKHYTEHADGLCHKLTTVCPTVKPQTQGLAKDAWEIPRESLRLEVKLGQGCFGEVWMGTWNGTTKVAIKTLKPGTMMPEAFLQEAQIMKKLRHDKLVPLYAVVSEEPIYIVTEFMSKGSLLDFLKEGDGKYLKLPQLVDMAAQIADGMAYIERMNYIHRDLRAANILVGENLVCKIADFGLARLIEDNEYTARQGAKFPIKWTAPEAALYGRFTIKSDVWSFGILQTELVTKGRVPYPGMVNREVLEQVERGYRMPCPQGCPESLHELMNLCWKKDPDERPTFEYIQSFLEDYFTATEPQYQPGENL
UniProt P43403: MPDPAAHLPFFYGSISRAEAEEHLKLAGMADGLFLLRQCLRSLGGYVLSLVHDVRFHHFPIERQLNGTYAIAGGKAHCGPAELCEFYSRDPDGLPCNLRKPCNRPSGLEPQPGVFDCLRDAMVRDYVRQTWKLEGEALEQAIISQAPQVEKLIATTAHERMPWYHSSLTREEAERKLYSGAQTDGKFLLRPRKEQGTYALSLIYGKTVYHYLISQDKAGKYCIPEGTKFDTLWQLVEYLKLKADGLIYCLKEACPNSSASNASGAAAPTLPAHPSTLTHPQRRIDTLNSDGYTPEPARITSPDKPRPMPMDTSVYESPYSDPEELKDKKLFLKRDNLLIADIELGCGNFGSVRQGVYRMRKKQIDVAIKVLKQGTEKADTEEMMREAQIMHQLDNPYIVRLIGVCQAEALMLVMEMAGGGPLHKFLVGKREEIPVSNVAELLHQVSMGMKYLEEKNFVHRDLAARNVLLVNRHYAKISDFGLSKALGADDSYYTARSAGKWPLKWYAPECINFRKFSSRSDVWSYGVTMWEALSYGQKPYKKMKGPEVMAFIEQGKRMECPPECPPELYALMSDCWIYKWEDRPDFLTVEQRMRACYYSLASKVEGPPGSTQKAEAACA
UniProt P11802: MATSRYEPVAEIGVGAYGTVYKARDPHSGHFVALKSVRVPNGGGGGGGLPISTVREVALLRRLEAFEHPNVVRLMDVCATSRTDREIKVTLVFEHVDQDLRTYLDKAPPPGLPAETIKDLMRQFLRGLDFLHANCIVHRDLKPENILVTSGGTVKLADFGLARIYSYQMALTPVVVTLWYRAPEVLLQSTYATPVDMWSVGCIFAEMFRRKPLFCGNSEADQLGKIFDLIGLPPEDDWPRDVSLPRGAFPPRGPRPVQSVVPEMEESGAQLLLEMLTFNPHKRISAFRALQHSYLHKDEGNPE
UniProt P50613: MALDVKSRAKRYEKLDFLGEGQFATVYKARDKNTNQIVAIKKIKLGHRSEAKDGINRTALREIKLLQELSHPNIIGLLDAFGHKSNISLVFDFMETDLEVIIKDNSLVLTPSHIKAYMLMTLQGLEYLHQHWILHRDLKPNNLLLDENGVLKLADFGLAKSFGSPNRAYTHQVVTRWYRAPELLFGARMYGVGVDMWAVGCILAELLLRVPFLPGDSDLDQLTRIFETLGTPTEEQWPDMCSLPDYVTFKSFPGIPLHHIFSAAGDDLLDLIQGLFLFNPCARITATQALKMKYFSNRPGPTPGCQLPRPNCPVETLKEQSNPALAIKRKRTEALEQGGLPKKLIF
UniProt P50750, whole entry: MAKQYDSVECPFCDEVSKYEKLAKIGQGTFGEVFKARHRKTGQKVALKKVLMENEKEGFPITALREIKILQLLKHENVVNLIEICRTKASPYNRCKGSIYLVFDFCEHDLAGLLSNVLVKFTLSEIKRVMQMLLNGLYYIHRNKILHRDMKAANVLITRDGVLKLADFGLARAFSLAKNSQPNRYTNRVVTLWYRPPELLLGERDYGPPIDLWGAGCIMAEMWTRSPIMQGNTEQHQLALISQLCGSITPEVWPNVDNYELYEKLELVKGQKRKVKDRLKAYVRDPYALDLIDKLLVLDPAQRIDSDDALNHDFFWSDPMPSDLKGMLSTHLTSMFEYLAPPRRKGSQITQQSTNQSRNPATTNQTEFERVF

Columns and labels:
Conditions in all cases: K562; 2-18 h
YES1 = YES1 (UniProt P07947); assay: number of time points (of 5) at which kinase-Nluc abundance scored as decreased, DMSO-normalised (count); higher = more persistent destabilization
ZAK = ZAK (UniProt Q9NYL2); assay: as above
ZAP70 = ZAP70 (UniProt P43403); assay: as above
CDK4 = CDK4 (UniProt P11802); assay: number of time points (of 4; 2 h point missing) at which kinase-Nluc abundance scored as decreased, DMSO-normalised (count); higher = more persistent destabilization
CDK7 = CDK7 (UniProt P50613); assay: as above
CDK9 = CDK9 (UniProt P50750); assay: as above

| SMILES | number of time points (YES1) | number of time points (ZAK) | number of time points (ZAP70) | number of time points (CDK4) | number of time points (CDK7) | number of time points (CDK9) |
| --- | --- | --- | --- | --- | --- | --- |
| O=C(O)CCNC(=O)c1ccc(/N=N/c2ccc(O)c(C(=O)O)c2)cc1 [Balsalazide] (10 µM) | 0 | 0 | 0 | 0 | 0 | 0 |
| Cc1cccc([C@@H](CO)NC(=O)[C@@H](C)N2Cc3ccc(-c4nc(NC5CCOCC5)ncc4Cl)cc3C2=O)c1 [ERK1/2 inhibitor 1] (10 µM) | 0 | 0 | 0 | 0 | 0 | 0 |
| CNC(=O)c1ccccc1Nc1nc(Nc2ccc(N3CCOCC3)cc2OC)ncc1Cl (2.5 µM) | 0 | 0 | 0 | 0 | 0 | 0 |
| O=C1c2ccccc2-c2n[nH]c3cccc1c23 (10 µM) | 0 | 0 | 0 | 0 | 0 | 0 |
| CCN1C(=O)N(c2c(F)c(OC)cc(OC)c2F)Cc2cnc3[nH]c(CN4CCOCC4)cc3c21 [Pemigatinib] (10 µM) | 0 | 0 | 0 | 0 | 0 | 0 |
| Cc1nc(-c2cnc(NC(C)C)n(C)c2=O)ccc1Oc1ccnc(-c2cnn(C)c2)c1 (2.5 µM) | 0 | 0 | 0 | 0 | 0 | 0 |
| Nc1nc(N)c(N=O)c(OCC2CCCCC2)n1 (10 µM) | 0 | 0 | 0 | 0 | 0 | 0 |
| CN1CCN(c2ccc(C(=O)Nc3n[nH]c4ccc(Cc5cc(F)cc(F)c5)cc34)c(NC3CCOCC3)c2)CC1 [Entrectinib] (2.5 µM) | 0 | 0 | 0 | 0 | 0 | 0 |
| COc1ccc(F)c(F)c1C(=O)c1cnc(NC2CCN(S(C)(=O)=O)CC2)nc1N (2.5 µM) | 2 | 0 | 0 | 0 | 3 | 1 |
| C/C=C(/C)C(=O)O[C@H]1Cc2cc3ccc(=O)oc3cc2OC1(C)C [Decursinol angelate] (10 µM) | 0 | 0 | 0 | 0 | 0 | 0 |
| CC(C)n1cnc2c(NCc3cccc(C(F)(F)F)c3)ncnc21 [Longdaysin] (10 µM) | 0 | 0 | 0 | 0 | 0 | 0 |
| Cc1cc(C(=O)Nc2cccc(C(=O)Nc3cccc(C(F)(F)F)c3)c2)on1 (10 µM) | 0 | 0 | 0 | 0 | 0 | 0 |
| CCC(=O)N1CCN(c2ccc(-n3c(=O)ccc4cnc5ccc(-c6cnc7ccccc7c6)cc5c43)cc2C(F)(F)F)CC1 [Torin 1] (2 µM) | 0 | 0 | 0 | 0 | 3 | 2 |
| O=C1Nc2ccccc2/C1=C/c1ccc(F)cc1 (10 µM) | 0 | 0 | 0 | 0 | 0 | 0 |
| CCN1CCN(c2ccc(Nc3cc(N(C)C(=O)Nc4c(Cl)c(OC)cc(OC)c4Cl)ncn3)cc2)CC1 [Infigratinib] (10 µM) | 0 | 0 | 0 | 0 | 0 | 0 |
| N#C/C(=C\c1ccc(O)c(O)c1)C(=O)NCCCc1ccccc1 (10 µM) | 0 | 0 | 0 | 0 | 0 | 0 |
| C=CC(=O)Nc1ccc2ncnc(Nc3cccc(Br)c3)c2c1 (10 µM) | 0 | 0 | 0 | 0 | 0 | 0 |
| CCN(CC)CCCCNc1ncc2cc(-c3c(Cl)cccc3Cl)c(NC(=O)NC(C)(C)C)nc2n1 (2.5 µM) | 0 | 0 | 0 | 1 | 3 | 2 |
| NC(=O)c1ccc(-c2nc(-c3ccccn3)c(-c3ccc4c(c3)OCO4)[nH]2)cc1 (10 µM) | 0 | 0 | 0 | 0 | 0 | 0 |
| CC(C)CC(=O)Nc1n[nH]c2c1CN(C(=O)C1CCN(C)CC1)C2(C)C (2.5 µM) | 0 | 0 | 0 | 0 | 0 | 2 |
| COC(=O)c1ccc2c(C(=Nc3ccc(N(C)C(=O)CN4CCN(C)CC4)cc3)c3ccccc3)c(O)[nH]c2c1 [Nintedanib] (2.5 µM) | 0 | 0 | 0 | 0 | 0 | 0 |
| C=CC(=O)N[C@H]1COC[C@H]1Nc1ncc2cc(-c3c(Cl)c(OC)cc(OC)c3Cl)c(=O)n(C)c2n1 (10 µM) | 0 | 0 | 0 | 0 | 0 | 0 |
| CC(C)(/C=C(\C#N)C(=O)N1CCC[C@@H](n2nc(-c3ccc(Oc4ccccc4)cc3F)c3c(N)ncnc32)C1)N1CCN(C2COC2)CC1 (2.5 µM) | 0 | 0 | 0 | 0 | 0 | 0 |
| CCN(CC)CCCCNc1ncc2cc(-c3cc(OC)cc(OC)c3)c(NC(=O)NC(C)(C)C)nc2n1 (10 µM) | 0 | 0 | 0 | 0 | 0 | 0 |

3 compounds drawn at random from the list so far:

| SMILES | number of time points (YES1) | number of time points (ZAK) | number of time points (ZAP70) | number of time points (CDK4) | number of time points (CDK7) | number of time points (CDK9) |
| --- | --- | --- | --- | --- | --- | --- |
| O=C(O)CCNC(=O)c1ccc(/N=N/c2ccc(O)c(C(=O)O)c2)cc1 [Balsalazide] (10 µM) | 0 | 0 | 0 | 0 | 0 | 0 |
| CCN1C(=O)N(c2c(F)c(OC)cc(OC)c2F)Cc2cnc3[nH]c(CN4CCOCC4)cc3c21 [Pemigatinib] (10 µM) | 0 | 0 | 0 | 0 | 0 | 0 |
| NC(=O)c1ccc(-c2nc(-c3ccccn3)c(-c3ccc4c(c3)OCO4)[nH]2)cc1 (10 µM) | 0 | 0 | 0 | 0 | 0 | 0 |

Next part

| SMILES | number of time points (YES1) | number of time points (ZAK) | number of time points (ZAP70) | number of time points (CDK4) | number of time points (CDK7) | number of time points (CDK9) |
| --- | --- | --- | --- | --- | --- | --- |
| CC(C)(C)n1nc(Cc2cccc3ccccc23)c2c(N)ncnc21 (10 µM) | 0 | 0 | 0 | 0 | 0 | 0 |
| COc1c(CC=C(C)C)c(O)cc2oc(=O)c(-c3ccc(O)cc3O)cc12 [Glycycoumarin] (10 µM) | 0 | 0 | 0 | 0 | 0 | 0 |
| Cc1ccc(S(=O)(=O)Nc2nc3ccccc3nc2Nc2ccc3nsnc3c2)cc1 [Pilaralisib analogue] (10 µM) | 4 | 0 | 0 | 0 | 0 | 0 |
| Cc1c[nH]c(/C=C2\C(=O)Nc3ccccc32)c1CCC(=O)O (10 µM) | 0 | 0 | 0 | 0 | 0 | 0 |
| COc1cc(OC)cc(-c2cc3cnc(N)nc3nc2NC(=O)NC(C)(C)C)c1 (10 µM) | 0 | 0 | 0 | 0 | 0 | 0 |
| Nc1ncnc2c1c(-c1cccc(OCc3ccccc3)c1)cn2C1CC(CN2CCCC2)C1 (stereo not drawn) (2.5 µM) | 0 | 0 | 0 | 0 | 0 | 0 |
| CN1CCN(c2ccc(Nc3cc(-c4cccc(-n5ccc6cc(C7CC7)cc(F)c6c5=O)c4CO)cn(C)c3=O)nc2)CC1 (2.5 µM) | 0 | 0 | 0 | 0 | 0 | 0 |
| CCN(CCCOc1ccc2c(Nc3cc(CC(=O)Nc4cccc(F)c4)[nH]n3)ncnc2c1)CCOP(=O)(O)O [Barasertib] (10 µM) | 0 | 0 | 0 | 0 | 1 | 0 |
| N#C/C(=C\c1ccc(O)c(O)c1)C(=O)NCc1ccccc1 (10 µM) | 0 | 0 | 0 | 0 | 0 | 0 |
| FC(F)(F)c1ccc(CNc2ccc(Cc3c[nH]c4ncc(Cl)cc34)cn2)cc1 (10 µM) | 0 | 0 | 0 | 0 | 0 | 0 |
| Cc1cc(C)c(/C=C2\C(=O)Nc3ccccc32)[nH]1 [Semaxinib] (10 µM) | 0 | – | 0 | 0 | 0 | 0 |
| Nc1nc(OCC2CCCCC2)c2[nH]cnc2n1 (10 µM) | 0 | 0 | 0 | 0 | 0 | 0 |
| C=CC(=O)Nc1cccc(Nc2nc(Nc3ccc(OCCOC)cc3)ncc2F)c1 [Spebrutinib] (10 µM) | 0 | 0 | 0 | 0 | 0 | 0 |
| COc1cc2ncn(-c3cc(OCc4ccccc4C(F)(F)F)c(C(N)=O)s3)c2cc1OC (10 µM) | 0 | 0 | 0 | 0 | 2 | 1 |
| CCn1cc(-c2ccnc3[nH]c(-c4cccc(CN(C)C)c4)cc23)c(-c2ccc(NC(=O)N(C)C)cc2)n1 (2.5 µM) | 0 | 0 | 0 | 0 | 0 | 0 |
| CC(C)Oc1cc(Nc2nc(N[C@@H](C)c3ccc(F)cn3)ncc2Cl)n[nH]1 (10 µM) | 0 | 0 | 0 | 0 | 0 | 0 |
| CNc1nc(-c2ccc3c(N)n[nH]c3c2)cc(N2C[C@@H](C(=O)NC3CCCCC3)CC[C@H]2C)n1 (10 µM) | 0 | 0 | 0 | 0 | 0 | 0 |
| COc1cc(Nc2ncc3c(n2)-c2ccc(Cl)cc2C(c2c(F)cccc2OC)=NC3)ccc1C(=O)O [Alisertib] (2.5 µM) | 0 | – | 0 | 0 | 0 | 0 |
| COc1ccc2c(C(=O)Nc3ccc(NC(=O)c4nn(C5CCN(C(=O)CC(C)(C)C#N)CC5)c5ccc(F)cc45)cc3Cl)cnn2c1 [Src Inhibitor 3] (2.5 µM) | 3 | 1 | 0 | 0 | 3 | 1 |
| Cc1c(NC(=O)c2cc3c(s2)CCCC3)cccc1-c1cn(C)c(=O)c(Nc2ccc([C@@H]3C(=O)N(C)CCN3C)cc2)n1 (10 µM) | 0 | 0 | 0 | 0 | 0 | 0 |
| CN(C)C[C@@H]1CCn2cc(c3ccccc32)C2=C(C(=O)NC2=O)c2cn(c3ccccc23)CCO1 [Ruboxistaurin (hydrochloride)] (10 µM) | 0 | 0 | 0 | – | 0 | 0 |
| O=c1cc(-c2ccccc2)oc2c(O)c(O)ccc12 [7,8-Dihydroxyflavone] (10 µM) | 0 | 0 | 0 | 0 | 0 | 0 |
| Cc1c(Cn2c(C)nc3c(C(=O)O)cc(N4CCOCC4)cc32)cccc1C(F)(F)F (10 µM) | 0 | – | – | 0 | 0 | 0 |
| Cc1c[nH]c2ccccc12 [Skatole] (10 µM) | 0 | 0 | 0 | 0 | 0 | 0 |
